# Measured values: the supplement of paper PMC12819154, “High-throughput peptide-centric local stability assay extends protein–ligand identification to membrane proteins, tissues and bacteria” (Nature Structural & Molecular Biology, 2025)
# The chains behind the UniProt entries cited, without tags or fusion partners. Where a name states a change or a piece, a line headed by the entry shows the natural chain unless it says otherwise.
# UniProt Q91WM1: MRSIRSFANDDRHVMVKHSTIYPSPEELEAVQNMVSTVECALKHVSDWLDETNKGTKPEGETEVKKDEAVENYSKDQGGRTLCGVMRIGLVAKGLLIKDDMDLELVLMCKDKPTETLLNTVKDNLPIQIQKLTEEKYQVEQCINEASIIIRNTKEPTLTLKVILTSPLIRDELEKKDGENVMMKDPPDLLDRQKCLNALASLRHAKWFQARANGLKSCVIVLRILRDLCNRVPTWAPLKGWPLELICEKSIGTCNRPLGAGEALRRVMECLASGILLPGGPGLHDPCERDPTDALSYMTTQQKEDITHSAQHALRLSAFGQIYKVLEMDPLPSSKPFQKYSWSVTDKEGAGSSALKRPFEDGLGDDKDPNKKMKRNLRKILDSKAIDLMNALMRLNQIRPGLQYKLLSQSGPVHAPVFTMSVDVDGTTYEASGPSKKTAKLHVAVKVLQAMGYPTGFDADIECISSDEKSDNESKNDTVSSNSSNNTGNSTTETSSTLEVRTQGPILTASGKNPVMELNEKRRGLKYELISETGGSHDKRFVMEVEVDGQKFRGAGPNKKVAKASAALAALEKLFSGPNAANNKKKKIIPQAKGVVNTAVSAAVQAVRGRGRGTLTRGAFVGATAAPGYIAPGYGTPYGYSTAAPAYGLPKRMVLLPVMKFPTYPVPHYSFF
# UniProt Q91X44: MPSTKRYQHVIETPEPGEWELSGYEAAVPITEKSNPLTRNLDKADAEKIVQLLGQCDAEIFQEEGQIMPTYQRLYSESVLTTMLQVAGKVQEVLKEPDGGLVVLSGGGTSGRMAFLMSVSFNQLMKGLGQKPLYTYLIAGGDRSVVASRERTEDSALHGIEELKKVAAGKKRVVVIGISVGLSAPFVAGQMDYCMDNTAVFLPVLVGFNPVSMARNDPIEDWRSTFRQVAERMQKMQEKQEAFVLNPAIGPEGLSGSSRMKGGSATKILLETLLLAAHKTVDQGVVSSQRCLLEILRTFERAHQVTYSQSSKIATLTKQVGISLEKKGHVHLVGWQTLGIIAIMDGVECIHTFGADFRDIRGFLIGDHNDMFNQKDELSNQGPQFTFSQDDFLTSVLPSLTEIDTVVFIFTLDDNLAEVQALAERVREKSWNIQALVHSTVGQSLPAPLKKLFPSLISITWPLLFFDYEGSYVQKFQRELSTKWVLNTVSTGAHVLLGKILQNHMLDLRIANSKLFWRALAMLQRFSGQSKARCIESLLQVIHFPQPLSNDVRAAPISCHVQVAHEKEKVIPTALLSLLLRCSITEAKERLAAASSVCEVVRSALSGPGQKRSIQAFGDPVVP
# UniProt Q91ZT5: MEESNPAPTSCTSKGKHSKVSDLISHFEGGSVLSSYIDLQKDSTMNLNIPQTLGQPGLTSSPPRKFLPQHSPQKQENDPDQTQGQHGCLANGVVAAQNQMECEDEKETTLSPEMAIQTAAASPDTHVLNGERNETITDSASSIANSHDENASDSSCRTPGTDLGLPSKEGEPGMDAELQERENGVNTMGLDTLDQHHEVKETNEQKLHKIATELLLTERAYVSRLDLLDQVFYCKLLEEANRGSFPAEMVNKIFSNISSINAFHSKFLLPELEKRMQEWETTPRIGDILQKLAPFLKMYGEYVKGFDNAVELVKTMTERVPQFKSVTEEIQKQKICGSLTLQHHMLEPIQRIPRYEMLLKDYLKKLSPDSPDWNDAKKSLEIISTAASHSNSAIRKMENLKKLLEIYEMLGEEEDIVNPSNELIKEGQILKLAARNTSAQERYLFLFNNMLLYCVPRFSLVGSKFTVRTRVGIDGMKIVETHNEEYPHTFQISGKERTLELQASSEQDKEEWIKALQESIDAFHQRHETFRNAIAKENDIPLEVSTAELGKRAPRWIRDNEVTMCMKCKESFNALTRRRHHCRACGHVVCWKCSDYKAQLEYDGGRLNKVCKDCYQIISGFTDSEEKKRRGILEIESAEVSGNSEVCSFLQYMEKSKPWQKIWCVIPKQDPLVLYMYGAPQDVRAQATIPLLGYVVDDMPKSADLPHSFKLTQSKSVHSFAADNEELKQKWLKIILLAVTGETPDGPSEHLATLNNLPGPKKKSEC
# UniProt Q91YI6: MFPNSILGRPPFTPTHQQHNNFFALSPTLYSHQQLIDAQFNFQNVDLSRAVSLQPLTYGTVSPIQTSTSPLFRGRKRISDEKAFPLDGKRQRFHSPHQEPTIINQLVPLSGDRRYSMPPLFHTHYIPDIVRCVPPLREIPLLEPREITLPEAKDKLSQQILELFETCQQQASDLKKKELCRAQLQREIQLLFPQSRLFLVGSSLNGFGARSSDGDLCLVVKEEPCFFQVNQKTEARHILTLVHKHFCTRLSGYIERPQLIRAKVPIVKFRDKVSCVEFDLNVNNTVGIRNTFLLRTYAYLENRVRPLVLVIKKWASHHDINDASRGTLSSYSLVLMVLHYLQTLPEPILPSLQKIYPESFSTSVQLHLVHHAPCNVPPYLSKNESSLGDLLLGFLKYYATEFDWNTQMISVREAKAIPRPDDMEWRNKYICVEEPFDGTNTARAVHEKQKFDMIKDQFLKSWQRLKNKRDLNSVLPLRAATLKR
# UniProt Q91WD5, whole entry: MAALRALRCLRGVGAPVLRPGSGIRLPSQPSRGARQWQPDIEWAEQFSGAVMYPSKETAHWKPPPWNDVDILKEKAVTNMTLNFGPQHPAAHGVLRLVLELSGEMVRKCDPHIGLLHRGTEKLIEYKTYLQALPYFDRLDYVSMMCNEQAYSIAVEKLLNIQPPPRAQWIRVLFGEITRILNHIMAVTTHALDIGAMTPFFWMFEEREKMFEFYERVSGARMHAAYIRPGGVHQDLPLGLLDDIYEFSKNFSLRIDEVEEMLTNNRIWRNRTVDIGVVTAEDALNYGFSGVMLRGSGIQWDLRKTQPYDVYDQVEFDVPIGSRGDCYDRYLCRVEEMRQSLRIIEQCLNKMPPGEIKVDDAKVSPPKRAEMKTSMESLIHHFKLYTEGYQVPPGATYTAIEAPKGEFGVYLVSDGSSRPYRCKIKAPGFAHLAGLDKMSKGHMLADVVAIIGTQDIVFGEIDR
# UniProt Q8VHP6: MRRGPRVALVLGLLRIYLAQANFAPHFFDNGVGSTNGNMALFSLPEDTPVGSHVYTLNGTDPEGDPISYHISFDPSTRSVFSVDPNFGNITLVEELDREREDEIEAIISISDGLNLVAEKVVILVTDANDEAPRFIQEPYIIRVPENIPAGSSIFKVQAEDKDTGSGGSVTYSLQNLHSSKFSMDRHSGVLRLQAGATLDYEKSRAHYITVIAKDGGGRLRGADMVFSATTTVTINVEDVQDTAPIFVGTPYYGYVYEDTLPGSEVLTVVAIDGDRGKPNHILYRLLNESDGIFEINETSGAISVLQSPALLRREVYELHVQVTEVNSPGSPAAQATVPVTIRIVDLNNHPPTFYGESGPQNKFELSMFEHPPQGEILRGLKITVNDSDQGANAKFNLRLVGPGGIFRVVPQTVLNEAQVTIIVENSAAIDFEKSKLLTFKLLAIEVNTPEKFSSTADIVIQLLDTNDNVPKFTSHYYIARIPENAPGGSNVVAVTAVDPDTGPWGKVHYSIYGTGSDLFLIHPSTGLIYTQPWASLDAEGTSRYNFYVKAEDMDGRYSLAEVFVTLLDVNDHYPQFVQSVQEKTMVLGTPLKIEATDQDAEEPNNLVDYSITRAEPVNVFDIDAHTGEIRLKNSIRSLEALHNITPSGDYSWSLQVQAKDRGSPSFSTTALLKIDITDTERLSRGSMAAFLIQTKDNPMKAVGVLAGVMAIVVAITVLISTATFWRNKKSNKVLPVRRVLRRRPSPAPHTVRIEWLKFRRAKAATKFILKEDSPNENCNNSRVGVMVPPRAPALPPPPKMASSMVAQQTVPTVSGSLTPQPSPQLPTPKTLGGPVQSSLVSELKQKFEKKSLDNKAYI
# UniProt Q91WK0: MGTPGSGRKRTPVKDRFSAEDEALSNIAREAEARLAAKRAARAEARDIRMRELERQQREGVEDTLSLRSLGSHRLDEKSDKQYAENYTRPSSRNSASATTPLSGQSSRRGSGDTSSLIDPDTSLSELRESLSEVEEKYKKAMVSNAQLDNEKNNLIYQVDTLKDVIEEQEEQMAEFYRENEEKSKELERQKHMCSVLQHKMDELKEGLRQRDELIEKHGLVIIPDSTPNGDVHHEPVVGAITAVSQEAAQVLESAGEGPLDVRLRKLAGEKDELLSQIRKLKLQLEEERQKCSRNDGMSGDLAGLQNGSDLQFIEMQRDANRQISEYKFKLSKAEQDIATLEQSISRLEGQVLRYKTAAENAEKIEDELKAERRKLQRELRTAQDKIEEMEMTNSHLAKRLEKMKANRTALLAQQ
# UniProt Q91VC9: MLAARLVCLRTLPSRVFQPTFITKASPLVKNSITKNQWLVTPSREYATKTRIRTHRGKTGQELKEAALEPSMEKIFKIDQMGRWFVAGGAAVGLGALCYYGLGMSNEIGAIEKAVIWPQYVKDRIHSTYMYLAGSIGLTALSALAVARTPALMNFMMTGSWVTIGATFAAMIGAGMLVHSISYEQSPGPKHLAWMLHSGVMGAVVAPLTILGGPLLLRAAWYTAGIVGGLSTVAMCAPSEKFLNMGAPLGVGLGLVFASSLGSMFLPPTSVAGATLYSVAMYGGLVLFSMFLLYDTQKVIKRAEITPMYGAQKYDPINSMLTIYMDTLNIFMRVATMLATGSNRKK
# UniProt Q91X34: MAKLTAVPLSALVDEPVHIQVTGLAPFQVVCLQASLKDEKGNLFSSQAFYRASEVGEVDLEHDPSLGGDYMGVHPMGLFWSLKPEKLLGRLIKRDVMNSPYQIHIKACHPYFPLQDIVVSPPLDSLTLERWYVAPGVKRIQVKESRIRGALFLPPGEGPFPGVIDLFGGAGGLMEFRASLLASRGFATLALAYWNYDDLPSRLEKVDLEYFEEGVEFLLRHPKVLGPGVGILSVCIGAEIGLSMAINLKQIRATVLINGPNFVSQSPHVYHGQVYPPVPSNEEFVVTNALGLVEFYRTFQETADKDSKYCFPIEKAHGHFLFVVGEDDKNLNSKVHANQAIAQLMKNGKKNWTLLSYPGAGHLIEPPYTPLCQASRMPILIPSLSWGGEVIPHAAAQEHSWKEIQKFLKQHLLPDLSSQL
# UniProt Q91WE6: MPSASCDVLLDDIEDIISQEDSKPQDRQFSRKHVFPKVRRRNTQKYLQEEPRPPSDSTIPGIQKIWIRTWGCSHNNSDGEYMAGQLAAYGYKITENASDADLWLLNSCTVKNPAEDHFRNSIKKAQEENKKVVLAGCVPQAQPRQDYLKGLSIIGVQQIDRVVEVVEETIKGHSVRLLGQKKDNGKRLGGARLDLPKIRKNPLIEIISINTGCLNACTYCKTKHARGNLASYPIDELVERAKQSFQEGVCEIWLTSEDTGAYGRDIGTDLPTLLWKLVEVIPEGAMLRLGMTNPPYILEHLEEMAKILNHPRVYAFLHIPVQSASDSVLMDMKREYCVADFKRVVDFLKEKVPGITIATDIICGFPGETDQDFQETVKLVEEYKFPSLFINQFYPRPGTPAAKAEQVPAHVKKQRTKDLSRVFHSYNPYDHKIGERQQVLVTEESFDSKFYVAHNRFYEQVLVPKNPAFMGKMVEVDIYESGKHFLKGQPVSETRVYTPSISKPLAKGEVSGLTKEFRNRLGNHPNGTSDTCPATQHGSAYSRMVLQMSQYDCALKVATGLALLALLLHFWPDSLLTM
# UniProt Q91X84: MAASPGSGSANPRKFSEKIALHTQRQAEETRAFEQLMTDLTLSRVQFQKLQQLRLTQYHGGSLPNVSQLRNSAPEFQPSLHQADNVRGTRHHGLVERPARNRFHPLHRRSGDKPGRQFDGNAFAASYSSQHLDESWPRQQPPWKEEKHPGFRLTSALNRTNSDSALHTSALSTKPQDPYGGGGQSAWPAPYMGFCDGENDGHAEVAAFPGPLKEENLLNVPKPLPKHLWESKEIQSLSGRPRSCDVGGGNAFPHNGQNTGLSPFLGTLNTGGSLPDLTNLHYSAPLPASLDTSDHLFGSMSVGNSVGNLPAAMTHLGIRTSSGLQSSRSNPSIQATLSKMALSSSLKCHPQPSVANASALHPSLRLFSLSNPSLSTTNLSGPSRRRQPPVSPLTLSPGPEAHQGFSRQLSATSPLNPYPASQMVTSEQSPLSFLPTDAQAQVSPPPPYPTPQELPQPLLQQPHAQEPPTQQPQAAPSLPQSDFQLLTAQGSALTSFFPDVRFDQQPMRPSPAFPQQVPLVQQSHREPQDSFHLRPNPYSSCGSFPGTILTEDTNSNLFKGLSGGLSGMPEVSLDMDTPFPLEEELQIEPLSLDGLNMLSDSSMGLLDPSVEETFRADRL
# The list shows a part of the results. Most values lie at the level of the controls, where differences are scatter.
# Compound: CN[C@@H]1C[C@H]2O[C@@](C)([C@@H]1OC)n1c3ccccc3c3c4c(c5c6ccccc6n2c5c31)C(=O)NC4 [staurosporine]
# Experiment: log2 fold change of tryptic peptide abundance, ligand vs vehicle (limited proteolysis) (log2 ratio); higher = more trypsin-susceptible (destabilized)
# Settings: ligand concentration: 20 uM; sample: mouse liver crude lysate; replicate design: treated separately
row,Target,log2 fold change
1,"UniProt Q91WG5 (peptide sequence: MSFSGIFR, peptide start residue: 121)",-0.212
2,"UniProt Q91V09 (peptide sequence: VVDNEGALQLKR, peptide start residue: 386)",-0.284
3,"UniProt Q91WM1 (peptide sequence: YSWSVTDKEGAGSSALK, peptide start residue: 340)",-0.145
4,"UniProt Q91X44 (peptide sequence: CLLEILR, peptide start residue: 291)",-0.194
5,"UniProt Q91WC3 (peptide sequence: LLNRMYDK, peptide start residue: 369)",0.1
6,"UniProt Q8VHL1 (peptide sequence: AFQATQQK, peptide start residue: 359)",-0.0925
7,"UniProt Q8VHH5 (peptide sequence: ATPTTAPGTSPR, peptide start residue: 469)",0.12
8,"UniProt Q91ZT5 (peptide sequence: SLEIISTAASHSNSAIR, peptide start residue: 379)",-0.426
9,"UniProt Q91W67 (peptide sequence: LADQPLAPK, peptide start residue: 12)",-0.161
10,"UniProt Q91W34 (peptide sequence: ESWILVR, peptide start residue: 413)",0.307
11,"UniProt Q91X88 (peptide sequence: MDDWKPSPLIKPFGAR, peptide start residue: 1)",0.114
12,"UniProt Q91YI6 (peptide sequence: TYAYLENR, peptide start residue: 296)",-0.484
13,"UniProt Q91WD5 (peptide sequence: IIEQCLNK, peptide start residue: 343)",-0.154
14,"UniProt Q8VID5 (peptide sequence: YDEGSGGSGDEGRDEAHKR, peptide start residue: 485)",1.1
15,"UniProt Q91X77 (peptide sequence: RFSLTTLR, peptide start residue: 125)",0.205
16,"UniProt Q91W98 (peptide sequence: SGEGLGVFQQSSK, peptide start residue: 281)",0.0973

# Part of the list above, bar-delimited:
row | Target | log2 fold change
10 | UniProt Q91W34 (peptide sequence: ESWILVR, peptide start residue: 413) | 0.307
12 | UniProt Q91YI6 (peptide sequence: TYAYLENR, peptide start residue: 296) | -0.484

# (listing goes on)

row,Target,log2 fold change
1,"UniProt Q8VHP6 (peptide sequence: PNHILYR, peptide start residue: 279)",0.00859
2,"UniProt Q91WK0 (peptide sequence: QRDELIEK, peptide start residue: 210)",-0.165
3,"UniProt Q91VC9 (peptide sequence: GKTGQELK, peptide start residue: 57)",0.1
4,"UniProt Q91W43 (peptide sequence: GYVAHEFILDTRPFKK, peptide start residue: 862)",0.158
5,"UniProt Q91V36 (peptide sequence: EFILSCLAR, peptide start residue: 279)",0.145
6,"UniProt Q91VH2 (peptide sequence: FGSAIPIPSLPDK, peptide start residue: 301)",0.175
7,"UniProt Q91X34 (peptide sequence: GNLFSSQAFYR, peptide start residue: 41)",-0.298
8,"UniProt Q91WV7 (peptide sequence: EVLFQFSGQAR, peptide start residue: 70)",0.306
9,"UniProt Q91WE6 (peptide sequence: FYVAHNR, peptide start residue: 450)",0.159
10,"UniProt Q91WC0 (peptide sequence: QNQIPTEDGSR, peptide start residue: 255)",-0.645
11,"UniProt Q91WA6 (peptide sequence: EVSGQSLQNSK, peptide start residue: 302)",0.0219
12,"UniProt Q91VU7 (peptide sequence: SLFPGLETK, peptide start residue: 212)",0.162
13,"UniProt Q8VIG0 (peptide sequence: NHVDLEAGLR, peptide start residue: 177)",0.149
14,"UniProt Q91X84 (peptide sequence: HHGLVERPAR, peptide start residue: 91)",0.609
15,"UniProt Q91Y57 (peptide sequence: LTDWTDSDPVHGFWYR, peptide start residue: 54)",0.193
